## Assay results

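Luminescence from an EWS-FLI1 target-promoter (NR0B1) reporter, set against a CMV-promoter reporter, two days after silencing single genes in TC32 Ewing sarcoma cells.
Each siRNA was applied at 20 nM.
A z-score of the log NR0B1-over-CMV signal, less the median of siRNAs with the same seed; more negative means a stronger specific loss of the NR0B1 reporter.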

The strongest results of the screen are mostly left out here.
Sequences are the guide (antisense) strand, without overhang.

strand,target gene,seed-corrected z-score
AUCACUAGCACAAAUAUGC,ARL6,1.02
UUGAUUUAAGGCAACAAAC,KGFLP1,0.4386
AACUAUGUUGGGAUGAUUC,MARK2,1.68
UCCUGUACAGCCUCCAUCC,TSPY3,1.561
UAAUUCGUCUGAGAUCUCC,AGA,0.08927
UUUGAAGACCGUGUUGUUA,KIAA1644,0.006011
UAUAUUGUCCAUUUACUCU,OSTCP2,0.2762
AUGAUAUCCAUCACCCACC,ARTN,0.7804
UUCGUUCUCAGCAAACUGA,TCEB1,0.7162
AAGUUGAACAUCGUGCGGU,DNAJC30,0.9014
UGCUGAGCAACUUAUCUCG,ANKRD1,-0.7293
UUUACGGCGAUGGAUGUGA,ARPIN,-0.07676
UUUAUGACUAUAUGAGUCC,FAM160B1,0.3058
UCAGCGCACUCACAGUUCC,PQLC3,-0.2333
UUAUGGUAUAGUUCUUGAG,IGSF6,0.8035
UUCUGUAUACAUAUCAAUU,GSTA3,-0.6623
UUUUGAGCUAUCCAGGAUG,CTBS,-0.1475
AAUUAUAGAGGUGAUCUCG,WBSCR28,0.1609
UCUUUCAUCAUCUCGGUGC,ALKBH2,0.139
UUUCGGCCCACGAACAGAC,STUB1,-0.2365
ACAGUUACUAUGAUACGGC,OR2D2,0.7743
UCAUGUUACUCAUCAGUUG,CLEC12A,0.1513
UAACCUUGGAGUAUCAAUC,WDR60,-0.3486
UUCCUUAGGAUGACGCACU,WDR1,-0.06665
UCGUCCAUGAAUUCCACGC,RPS28,1.77
UCUGUCUCAUUGCAGAGCC,TMEM125,1.068
AAUGUGAUAAUCUCUCUCU,MYH7,1.105
UUCUGGAACUGUCAGAUCC,CLDN20,0.4604
UUAGGAAUGAUGCAGACUG,LOC402279,-0.1868
ACUAUACUCACUCCUAGGG,ROGDI,1.493
AAAUGCACACUUGUAUUUC,CCRL2,0.03545
UAUAGCAGUAGGCUUGUUC,TKTL2,-0.00315
UCUAUGUGAACCGUGGAGC,C10orf62,0.1073
UACAUUAAACAACAUUGCC,THAP3,0.04211
AGUCGAAAAGGAUUAAGUC,FJX1,-0.5339
AAAGUAAGGAAUAUCUUUC,RAB7B,-0.3894
AAGGUUGUCAAGGAGAUCC,TXN2,-0.3304
UGAGGUCCACGAGCAGAUG,PIGQ,0.5899
UUUCGCAUAAAAGUCACAG,LIMS3,0.6255
UUGAGAAUCCUGAUGGAGC,KCNQ4,-0.5476
UCUUGAUCAACUGAGGAGC,DKC1,-0.9114
UCAGGUCACAGAAUAGAAU,RGP1,1.292
UAUCGCCCAAGGUUACGUC,GLB1L3,-0.1792
AAGAUAUCAAAUAUCCUUG,EVI5,0.02363
UGUUUUACCAGACCCAGUC,DHX15,0.4177
UCUGCGUCUAGGUCGAUCA,PCDHA9,-0.2997
UGUAUUUCCAGCGUAGCAG,CMTM8,0.02448
UAGCCUUAAGAAUUACUGC,BARD1,-0.5271
AAAUGUCACGGUACAGCUC,NFE2,0.05108
UCAAUGAGUACUGAACUCU,ZSCAN31,-0.2491
UAUGUACUUGGUUCCAGGC,TNN,0.176
AUAUGGAUAAGCCUUUAGC,TBCK,1.136
UUUGGUAACAGGCAAAGUC,F8A1,1.001
UUAGAUGUAUCAGAAUUAG,PRG4,0.6537
AACCUGUACAACAUAGUCC,UBTD2,0.09263
AUACUUCUCGGUCUUGUAG,P2RX5,-0.5371
UUUACAACAGAGUUGUUUG,ZAR1L,1.446
UACUCGGGAAAGCAGAUGG,GNAZ,0.8121
UCAGGGUCCACGUCGUGAU,ZSCAN5A,-1.072
UCAGGUCCAAGCAACCACU,HGH1,-0.1595
UCCCGAAUAACAUCUGAGC,SKIV2L,-0.8074
UGUAGCUCUGGUAAUGAUG,RLN1,-0.1243
UUAGAACCCAUAAGGAUGC,KIAA1324L,0.4113

For reference, 8 entries once more:

strand,target gene,seed-corrected z-score
AAUUAUAGAGGUGAUCUCG,WBSCR28,0.1609
UAUAUUGUCCAUUUACUCU,OSTCP2,0.2762
UCCUGUACAGCCUCCAUCC,TSPY3,1.561
UUCGUUCUCAGCAAACUGA,TCEB1,0.7162
AGUCGAAAAGGAUUAAGUC,FJX1,-0.5339
UUCUGGAACUGUCAGAUCC,CLDN20,0.4604
AACCUGUACAACAUAGUCC,UBTD2,0.09263
ACAGUUACUAUGAUACGGC,OR2D2,0.7743

The results are deposited in PubChem (AID1159506; NCATS, 2015).